These are yes or no findings as the source states them, for the method shown. Some entries that bind do so weakly or less than the wild type.
Biological target: transforming growth factor-beta 1 (TGF-β1) (UniProt P01137)
Test: SPR; Biacore 2000, 25 °C; TGF-β1 coupled to a CM5 chip (1500 U); COMP and TSP-4 as analytes, 1:2 dilution series from 160 to 0 (legend: 5 to 160 nM), running buffer of Biacore AB, 30 µl/min; regeneration with 2 M NaCl; multicycle kinetics fitted to a 1:1 (Langmuir) model; both purified

The chains behind the UniProt entries cited, without tags or fusion partners. Residues count along the entry.
UniProt P01137, residues 279-390: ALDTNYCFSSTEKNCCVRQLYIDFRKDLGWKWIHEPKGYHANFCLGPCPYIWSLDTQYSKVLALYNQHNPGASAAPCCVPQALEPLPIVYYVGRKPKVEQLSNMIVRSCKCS
UniProt P49744, residues 43-980: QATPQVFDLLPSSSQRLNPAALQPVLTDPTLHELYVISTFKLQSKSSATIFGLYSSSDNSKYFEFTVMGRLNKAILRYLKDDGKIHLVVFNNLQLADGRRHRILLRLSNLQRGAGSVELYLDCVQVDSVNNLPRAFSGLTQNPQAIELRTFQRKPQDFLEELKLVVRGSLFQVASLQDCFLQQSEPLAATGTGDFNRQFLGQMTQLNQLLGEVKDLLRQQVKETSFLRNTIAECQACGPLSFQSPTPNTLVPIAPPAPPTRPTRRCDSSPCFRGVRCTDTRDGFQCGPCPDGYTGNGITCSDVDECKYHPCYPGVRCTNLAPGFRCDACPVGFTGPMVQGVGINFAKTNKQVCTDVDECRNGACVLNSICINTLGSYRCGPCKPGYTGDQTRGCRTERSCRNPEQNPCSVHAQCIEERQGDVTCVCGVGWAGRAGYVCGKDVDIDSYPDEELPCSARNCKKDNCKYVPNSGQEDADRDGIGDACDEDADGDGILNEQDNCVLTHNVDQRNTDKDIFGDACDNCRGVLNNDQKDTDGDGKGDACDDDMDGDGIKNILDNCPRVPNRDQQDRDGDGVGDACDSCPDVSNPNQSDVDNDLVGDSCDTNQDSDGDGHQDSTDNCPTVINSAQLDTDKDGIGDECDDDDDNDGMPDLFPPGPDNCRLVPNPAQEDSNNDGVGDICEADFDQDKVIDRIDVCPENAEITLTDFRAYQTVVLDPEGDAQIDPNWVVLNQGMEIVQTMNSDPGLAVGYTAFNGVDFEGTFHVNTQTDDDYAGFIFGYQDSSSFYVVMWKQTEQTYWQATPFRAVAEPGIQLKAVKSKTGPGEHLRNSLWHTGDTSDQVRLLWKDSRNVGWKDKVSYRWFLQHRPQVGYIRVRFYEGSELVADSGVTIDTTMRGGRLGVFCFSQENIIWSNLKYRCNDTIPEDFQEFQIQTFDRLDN
UniProt P35444, residues 20-755: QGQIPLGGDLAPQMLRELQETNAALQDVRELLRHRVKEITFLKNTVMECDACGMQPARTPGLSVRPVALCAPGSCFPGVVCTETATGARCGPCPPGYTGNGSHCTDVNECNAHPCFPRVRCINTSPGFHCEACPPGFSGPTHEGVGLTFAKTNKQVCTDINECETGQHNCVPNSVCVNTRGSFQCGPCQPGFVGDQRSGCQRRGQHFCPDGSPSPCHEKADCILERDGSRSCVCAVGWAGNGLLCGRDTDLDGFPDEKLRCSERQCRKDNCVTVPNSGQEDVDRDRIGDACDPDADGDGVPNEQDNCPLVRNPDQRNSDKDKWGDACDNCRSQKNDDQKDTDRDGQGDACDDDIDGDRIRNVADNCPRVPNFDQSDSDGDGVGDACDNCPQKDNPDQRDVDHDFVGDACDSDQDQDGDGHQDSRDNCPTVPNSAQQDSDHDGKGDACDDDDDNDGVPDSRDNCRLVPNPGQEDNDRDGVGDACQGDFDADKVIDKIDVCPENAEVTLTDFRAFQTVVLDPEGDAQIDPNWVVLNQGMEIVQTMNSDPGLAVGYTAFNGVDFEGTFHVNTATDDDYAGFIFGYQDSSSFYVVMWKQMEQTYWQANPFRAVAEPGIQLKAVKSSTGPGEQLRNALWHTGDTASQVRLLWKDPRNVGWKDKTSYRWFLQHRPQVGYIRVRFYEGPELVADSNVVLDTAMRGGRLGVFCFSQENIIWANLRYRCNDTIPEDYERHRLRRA

Row | binding | Substance
1 | binds | thrombospondin-4 (TSP-4), recombinant full-length rat (from UniProt P49744 43-980)
2 | binds | cartilage oligomeric matrix protein (COMP), recombinant full-length rat (from UniProt P35444 20-755)
